The experiment deals with bovine collagen II (bovine) (UniProt P02459). The experiment is described as follows: solid-phase binding assay (Europium-labelled anti-GST antibody, time-resolved fluorescence); 96-well plates coated with collagen (16.4 µg/ml) or GFOGER-peptide (5 µg/ml) overnight at 4°C, blocked with BSA-Diluent II; GST-αI domain at a fixed 400 nM added for one hour at RT in PBS + 2 mM …; some samples on rat collagen I with 10 mM EDTA in the binding step; both purified.

Amino acid sequences for entries named in this document (tags omitted). A change or cut given only in a name is not applied to a line headed by its entry.
UniProt P02459: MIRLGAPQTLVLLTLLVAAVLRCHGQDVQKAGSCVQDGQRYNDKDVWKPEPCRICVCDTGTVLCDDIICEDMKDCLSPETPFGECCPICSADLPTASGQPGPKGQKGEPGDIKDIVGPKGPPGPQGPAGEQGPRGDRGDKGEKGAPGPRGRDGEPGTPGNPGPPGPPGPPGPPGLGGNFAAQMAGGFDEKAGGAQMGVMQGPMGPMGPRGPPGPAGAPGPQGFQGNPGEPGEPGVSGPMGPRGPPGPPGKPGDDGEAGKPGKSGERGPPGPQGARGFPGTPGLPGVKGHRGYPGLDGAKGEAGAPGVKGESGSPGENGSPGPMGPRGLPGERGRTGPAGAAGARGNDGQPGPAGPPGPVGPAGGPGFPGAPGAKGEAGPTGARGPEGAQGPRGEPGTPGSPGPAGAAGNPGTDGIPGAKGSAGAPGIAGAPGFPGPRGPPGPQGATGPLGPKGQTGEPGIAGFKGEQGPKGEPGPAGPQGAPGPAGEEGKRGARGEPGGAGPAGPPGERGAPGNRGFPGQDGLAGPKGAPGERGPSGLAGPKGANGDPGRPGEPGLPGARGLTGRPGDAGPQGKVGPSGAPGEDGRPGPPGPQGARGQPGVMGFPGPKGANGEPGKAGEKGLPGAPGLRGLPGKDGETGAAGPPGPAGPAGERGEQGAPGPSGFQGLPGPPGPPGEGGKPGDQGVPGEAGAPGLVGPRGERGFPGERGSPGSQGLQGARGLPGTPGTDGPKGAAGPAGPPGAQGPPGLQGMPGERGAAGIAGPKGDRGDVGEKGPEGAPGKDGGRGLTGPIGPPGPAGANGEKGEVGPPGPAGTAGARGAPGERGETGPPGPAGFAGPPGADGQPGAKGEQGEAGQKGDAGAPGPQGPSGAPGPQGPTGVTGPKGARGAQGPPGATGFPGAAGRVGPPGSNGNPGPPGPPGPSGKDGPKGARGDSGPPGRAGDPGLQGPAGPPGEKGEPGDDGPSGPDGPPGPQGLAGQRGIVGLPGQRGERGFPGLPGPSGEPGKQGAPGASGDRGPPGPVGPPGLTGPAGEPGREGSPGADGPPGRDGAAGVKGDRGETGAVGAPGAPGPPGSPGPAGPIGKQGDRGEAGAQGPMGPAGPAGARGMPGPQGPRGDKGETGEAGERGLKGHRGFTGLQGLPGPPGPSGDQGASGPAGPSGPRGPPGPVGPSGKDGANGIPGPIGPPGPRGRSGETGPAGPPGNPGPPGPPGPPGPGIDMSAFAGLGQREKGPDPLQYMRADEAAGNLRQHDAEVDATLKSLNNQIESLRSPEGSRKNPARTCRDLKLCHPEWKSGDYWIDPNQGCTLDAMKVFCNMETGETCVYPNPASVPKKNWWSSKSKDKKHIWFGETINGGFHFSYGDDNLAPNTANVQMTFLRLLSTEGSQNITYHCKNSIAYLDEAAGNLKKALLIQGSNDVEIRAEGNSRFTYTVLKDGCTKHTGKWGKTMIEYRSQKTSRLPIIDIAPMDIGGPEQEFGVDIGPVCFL

No constants are given. Whether binding was seen depends on the method and setting. A result given as binding can be weak or reduced; the word gives no strength. Where a sequence is shown, tags or fusion partners need not be part of it.

B1: Pma_f2 αI domain (sea lamprey integrin α subunit fragment Pma_f2), GST-fusion protein (domain or fragment, sea lamprey (Petromyzon marinus))
chain: ADFQVTSTLTPAAQRCGLFMDIVIVLDGSNSIYPWQEVQNFVINIVKKFHIGPGQSRNGGGSTRFGVRTIHWHLGIARWACEGVQDVENIYSRPFVRTASALCQSLQVVRSEAFSPLFGAREGASKVMIVVTDGESHDSEDLTEAIAACERDNITRYAIAVLGYYKRKNIDPSNFISELKAISSEPEEKHFINVADEAALNDIVGTLGERIFSLEGTV
notes: also called Pma αI domains; source: E. coli BL21 tuner (gene synthesized, in pGEX-2T), recombinant GST-fusion protein, "sufficiently pure"
B1: the binding result is “binds”.

These data come from publication PMC4237329, “Early Chordate Origin of the Vertebrate Integrin αI Domains” (PLoS ONE, 2014).
